In brackets after ≈: the same amount, converted by molar mass. The name of at least one read-out is uncertain.
What was measured:
[1] = tested on: herpes simplex type 2 virus (HSV-2) (G); experiment: Inhibition of HSV-2 cytopathogenicity in Vero cell culture; assay type: cell-based; conditions: 50% inhibition of cytopathogenicity, for 1:1 mixtures IC50 refers to known antiviral drugs
[2] = tested on: thymidine kinase-positive (TK+) varicella-zoster virus (YS); experiment: Inhibition of TK+ VZV cytopathogenicity in Vero cell culture; assay type: cell-based; conditions: 50% inhibition of cytopathogenicity, for 1:1 mixtures IC50 refers to known antiviral drugs

## Nc1ncnc2c1ncn2[C@@H]1O[C@H](COP(=O)(O)O)[C@@H](OP(=O)(O)COCCn2cnc3ncnc(N)c32)[C@H]1O [Compound 24, 9-[5′-O-(phosphono)-β-D-furanosyl]adenine-3′-[[1-(adenin-7-yl-ethoxy)methyl]phosphonate]]
[1]
  IC50 HSV-2 (G): 4.1 µg/mL (≈ 6.81 µM)
[2]
  IC50 TK+VZV (YS): 3.8 µg/mL (≈ 6.31 µM)
